Patent publication US20040034037A1, “Heteroaryl compounds useful as inhibitors of GSK-3” (priority 2002, published 2004)
Some of these results come from one statement about several compounds together.

molecular target: human Lck kinase (UniProt P06239); test: Lck inhibition assay (radioactivity-based assay A or spectrophotometric assay B); assay type: biochemical; conditions: radioactivity-based (10 μM ATP) or spectrophotometric (150 μM ATP) assay, poly Glu-Tyr substrate

| SMILES | Ki |
| --- | --- |
| N#CCn1c(-c2nonc2N)nc2c([N+](=O)[O-])cccc21 [Compound I-56, 1-Cyanomethyl-2-[(4-amino)-1,2,5-oxadiazol-3-yl]-4-nitro benzimidazole] | < 5 µM |
| Nc1ccc2[nH]c(-c3nonc3N)nc2c1 [Compound I-57, 2-(4-Amino)-1,2,5-oxadiazol-3-yl-5-amino benzimidazole] | < 5 µM |
| N#CCOc1cccc2c1nc(-c1nonc1N)n2CC#N [Compound I-58, 1-Cyanomethyl-2-[(4-amino)-1,2,5-oxadiazol-3-yl]-4/7-cyanomethoxy benzimidazole] | < 5 µM |
| COc1cc2nc(-c3nonc3N)[nH]c2cc1OC [Compound I-59] | < 5 µM |
| Nc1ccc(Cl)cc1-c1nc2ccccc2[nH]1 [Compound I-71, 2-(1H-Benzoimidazol-2-yl)-4-chloro-phenylamine] | < 5 µM |
| Nc1nccnc1-c1nc2ccccc2[nH]1 [Compound I-80, 2-[(3-Amino)-2-pyrazinyl]benzimidazole] | < 5 µM |
| Nc1cccnc1-c1nc2ccccc2[nH]1 [Compound I-87] | < 5 µM |
| Cn1ncc(-c2nc3ccccc3[nH]2)c1N [Compound I-89] | < 5 µM |
| CNc1nccnc1-c1nc2ccccc2n1CC#N [Compound I-90, 3-(1-Cyanomethylbenzimidazol-2-yl)-pyrazin-2-yl methylamine] | < 5 µM |
| CC(C)Cn1c(-c2nc(Cl)cnc2N)nc2ccccc21 [Compound I-96] | < 5 µM |
| Nc1nonc1-c1nc2ccccc2n1-c1ccc(Cl)cc1 [Compound I-104] | < 5 µM |
| CC(C(N)=O)n1c(-c2nonc2N)nc2ccccc21 (stereo not drawn) [Compound I-109] | < 5 µM |
| CC(=O)C(C)n1c(-c2nonc2N)nc2ccccc21 (stereo not drawn) [Compound I-110] | < 5 µM |
| N#Cc1ccc(-n2c(-c3nonc3N)nc3ccccc32)cc1 [Compound I-117] | < 5 µM |
| CC(C)Cn1c(-c2nonc2N)nc2cc(O)ccc21 [Compound I-129] | < 5 µM |
